In paper PMC9688159 (Cancers, 2022):

How the values were obtained:
Experiment in all cases: cell viability (MTS)
Assay type in all cases: cell-based
[1] = tested on: BxPC-3 cells; conditions: Homo sapiens
Excerpt: (§1) Pancreatic carcinoma cell lines, PANC-1 (ACC 783), BxPC-3 (ACC 760), and Capan-1 (ACC 244), were obtained from DSMZ (Braunschweig, Germany). Normal human fibroblasts (NHF; 106-05A) were purchased from Sigma-Aldrich (Poznan, Poland). PANC-1 and NHF cells were maintained in DMEM containing 10% fetal bovine serum (FBS) and 1% antibiotic solution. BxPC-3 and Capan-1 cells were maintained in […] with 15% FBS and 1% penicillin/streptomycin solution. Cells were regularly tested for mycoplasma contamination.
(§2) In all experiments, cells were seeded in 96-well plates at a density of 4 × 10^3 (PANC-1, BxPC-3), 5 × 10^3 (Capan-1), and 2 × 10^3 (NHF) cells per well. Plates were incubated for 24 h at 37 °C.
(§3) To evaluate the effect of each compound on cell viability, cells were treated with different concentrations (0–60 µM) of tested compounds for 24, 48, and 72 h. Next, 20 µL of MTS solution was added to each well. Plates were incubated for 2 h at 37 °C. The absorbance was measured at 490 nm. Untreated cells served as a negative control. The number of viable cells is directly proportional to the intensity of color produced. Cell viability is expressed as a percentage of control cells.
(§4) To evaluate the activity of the compounds after blocking DRD2, cells were incubated with risperidone (10 µM) for 2 h at 37 °C. Next, the medium was removed and a fresh medium containing tested compounds (at a concentration of 0–60 µM) was added. Plates were incubated for a further 24 h. Next, 20 µL of MTS solution was added to each well, and incubation was started (for 2 h at 37 °C). The absorbance was measured at 490 nm. Untreated cells served as a negative control.

[2] = tested on: PANC-1 cells; conditions: Homo sapiens
Excerpt: as §1, §2, §3, §4

[3] = tested on: Capan-1 cells; conditions: Homo sapiens
Excerpt: as §1, §2, §3, §4

[4] = tested on: normal human fibroblasts (NHF); conditions: Fibroblast
Excerpt: as §1, §2, §3, §4

Measured: IC50

Cc1nc2n(c(=O)c1CCN1CCC(c3noc4cc(F)ccc34)CC1)CCCC2 [Risperidone]
> 60 µM: [1]; BXPC-3, 24 h | [1]; BXPC-3, 48 h | [1]; BXPC-3, 72 h | [2]; PANC-1, 24 h | [2]; PANC-1, 48 h | [2]; PANC-1, 72 h | [3]; CAPAN-1, 24 h | [3]; CAPAN-1, 48 h | [3]; CAPAN-1, 72 h | [4]; 24 h | [4]; 48 h | [4]; 72 h
